# In publication PMC12670160, “A drug-repurposing screen of FDA- and EMA-approved drugs identifies two NF-κB inhibitors active against eumycetoma” (Journal of Antimicrobial Chemotherapy, 2025):
# Counter-ions that a name gives are not always drawn. In all, about 5,300 compounds went through this assay and about 130 (2.5%) showed an effect of 50% or more. Some of the results follow.
# Test system: M. mycetomatis strain mm55
# Conditions: primary screen, metabolic activity vs growth control; 96 h, 2 µM; inhibitor
row,Structure (SMILES),% viability [%]
1,"COC(=O)c1ccc2c(c1)NC(=O)/C2=C(\Nc1ccc(N(C)C(=O)CN2CCN(C)CC2)cc1)c1ccccc1 [ONC0004600, nintedanib bibf 1120]",71.59
2,"C[C@@H]1O[C@@H](O[C@@H]2[C@@H](O)[C@H](OCCc3ccc(O)c(O)c3)O[C@H](CO)[C@H]2OC(=O)/C=C/c2ccc(O)c(O)c2)[C@H](O)[C@H](O)[C@H]1O [ONC0002049, verbascoside]",88.61
3,"O=C(O[C@@H]1Cc2c(O)cc(O)cc2O[C@@H]1c1cc(O)c(O)c(O)c1)c1cc(O)c(O)c(O)c1 [ONC0000967, epigallocatechin gallate]",65.75
4,"CC(C)C[C@H](NC(=O)CNC(=O)c1cc(Cl)ccc1Cl)B(O)O [ONC0004978, ixazomib mln2238]",104.5
5,"CCOC(=O)[C@H](CCc1ccccc1)N[C@@H](C)C(=O)N1[C@H](C(=O)O)C[C@H]2CCCC[C@@H]21 [ONC0004230, trandolapril]",76.93
6,"COc1cc2c(cc1OC)CC(=O)N(CCCN(C)C[C@@H]1Cc3cc(OC)c(OC)cc31)CC2 [ONC0004874, ivabradine hcl procoralan]",93.19
7,"CC(C)C1=C2[C@H]3CC[C@@H]4[C@@]5(C)CC[C@H](OC(=O)CC(C)(C)C(=O)O)C(C)(C)[C@@H]5CC[C@@]4(C)[C@]3(C)CC[C@@]2([C@@H](O)CN(CCN(C)C)Cc2ccc(Cl)cc2)CC1=O [ONC0001978, gsk2838232]",102.6
8,"C[C@@]1(c2cc(-c3cncnc3)c(F)cc2F)CCSC(N)=N1 [ONC0004881, ly2811376]",113.9
9,"C[C@H]1Oc2cc(cnc2N)-c2c(nn(C)c2C#N)CN(C)C(=O)c2ccc(F)cc21 [ONC0002431, lorlatinib]",99.33
10,"CCCN1CCN(c2ccc(C(=O)NC3(C(=O)NCC#N)CCCCC3)cc2)CC1 [ONC0001015, balicatib]",83.06
11,"CCc1ccc(/C=C/C(=O)Nc2ccc(C(C)=O)cc2)o1 [ONC0002689, heclin]",81.24
12,"C[C@H]1N=C(N(C)C)N=C(N)N1 [ONC0001178, imeglimin hydrochloride]",76.36
13,"Cc1cc(C)c(C2=NOC3C4CCC(C4)C23)c(C)c1 (centres unmarked) [ONC0000128, sn2]",78.29
14,"O=[N+]([O-])c1cccc2c(Br)n[nH]c12 [ONC0003082, 3bromo7nitroindazole]",81.41
15,CC(=O)Nc1ccc(C(=O)NC(C)(C)C)cc1 [ONC0002880],98.46
16,"O=C1NC(=O)[C@@H](c2cn3c4c(cccc24)CCC3)[C@@H]1c1c[nH]c2ccccc12 [ONC0001207, tivantinib]",98.39
17,"COc1ccccc1N1CCN(CCn2c(=O)[nH]c3c([nH]c4ccccc43)c2=O)CC1 [ONC0001608, 3mppi]",57.64
18,"CCc1cnn2c(NCc3ccc[n+]([O-])c3)cc(N3CCCC[C@H]3CCO)nc12 [ONC0005024, dinaciclib sch727965]",72.89
19,"Cn1c(=O)c2c(ncn2CCO)n(C)c1=O [ONC0001881, 7hydroxyethyltheophylline]",89.5
20,"CC(C)(CO)Cc1cc(C(C)(C)C)c(O)c(C(C)(C)C)c1 [ONC0002518, cgp7930]",66.25

# As entered above:
# In % viability [%], CCc1cnn2c(NCc3ccc[n+]([O-])c3)cc(N3CCCC[C@H]3CCO)nc12 [ONC0005024, dinaciclib sch727965] reads 72.89
# In % viability [%], COc1ccccc1N1CCN(CCn2c(=O)[nH]c3c([nH]c4ccccc43)c2=O)CC1 [ONC0001608, 3mppi] reads 57.64
# In % viability [%], C[C@@]1(c2cc(-c3cncnc3)c(F)cc2F)CCSC(N)=N1 [ONC0004881, ly2811376] reads 113.9

# More compounds.

row,Structure (SMILES),% viability [%]
1,"CCN(CC)CCCCC(NC(=O)c1ccc([N+](=O)[O-])cc1)c1ccccc1 (centres unmarked) [ONC0005365, nibentan]",124
2,"CCCCCCCCCCCCCCSCC(=O)O [ONC0003482, tetradecylthioacetic acid]",58.48
3,"CC(C)C(=O)c1ccc(O)c(O)c1 [ONC0002148, u0521]",93.35
4,"CC(C)NCC(O)COc1cccc2[nH]c3ccccc3c12 (centres unmarked) [ONC0003856, carazolol]",68.8
5,"CCCn1cnc2c1c(=O)n(CCCCC(C)=O)c(=O)n2C [ONC0001954, propentofylline]",88.77
6,"CC(C)NCC(O)c1cc(O)cc(O)c1 (centres unmarked) [ONC0000486, metaproterenol]",64.38
7,"CN1CCc2cc3c(cc2C1O)OCO3 (centres unmarked) [ONC0003326, hydrastinine hydrochloride]",65.88
8,"CCCCCCCCCCCCCCCCCCCCCC(=O)Nc1ccn([C@@H]2O[C@H](CO)[C@@H](O)[C@@H]2O)c(=O)n1 [ONC0003930, enocitabine]",67.51
9,"COCC(=O)O[C@]1(CCN(C)CCCc2nc3ccccc3[nH]2)CCc2cc(F)ccc2[C@@H]1C(C)C [ONC0004474, mibefradil]",133.5
10,"O=C(O)CCCCC1CCSS1 (centres unmarked) [ONC0002415, thioctic acid]",97.93
11,"CCN(CC)Cc1cc(Nc2ccnc3cc(Cl)ccc23)ccc1O [ONC0003211, amodiaquine dihydrochloride]",130.2
12,"CCN(CC)S(=O)(=O)c1ccc(C(=O)O)cc1 [ONC0004305, etebenecid]",97.53
13,"Cc1cc(C)nc(SCC(=O)Nc2ncc(Cc3cccc4ccccc34)s2)n1 [ONC0002711, sirreal2]",67.76
14,"CCc1c(C(=O)C(N)=O)c2c(OCC(=O)O)cccc2n1Cc1ccccc1 [ONC0004708, varespladib ly315920]",129.5
15,"Oc1cc2c(c(Cl)c1O)CCNCC2c1ccccc1 (centres unmarked) [ONC0001533, skf81297]",94.78
16,"CCC(=O)OCC(=O)[C@@]1(OC(=O)CC)[C@@H](C)C[C@H]2[C@@H]3CCC4=CC(=O)C=C[C@]4(C)[C@@]3(Cl)[C@@H](O)C[C@@]21C [ONC0003210, beclomethasone dipropionate]",77.88
17,"CN(C)c1ccccc1CN1CCCN(Cc2ccccc2N(C)C)C1c1ccncc1 [ONC0001644, gant61]",87.94
18,"O=c1c2ccccc2nc2n1CCc1c-2[nH]c2ccccc12 [ONC0004955, rutaecarpine rutecarpine]",80.68
19,"COc1ccc2[nH]c(C(=O)c3ccccc3)cc2c1 [ONC0001898, d64131]",78.99
20,"O=C(/C=C/C=C/c1ccc2c(c1)OCO2)N1CCCCC1 [ONC0003227, piperine]",80.79

row,Structure (SMILES),% viability [%]
1,CCNCC(O)c1cccc(O)c1 (centres unmarked) [ONC0003685],42.26
2,"CN(C)CCCn1cc(C2=C(c3c[nH]c4ccccc34)C(=O)NC2=O)c2ccccc21 [ONC0000937, gf109203x]",73.54
3,"OC[C@H]1O[C@H](O[C@H]2O[C@H](CO)[C@@H](O)[C@H](O)[C@H]2O)[C@H](O)[C@@H](O)[C@@H]1O [ONC0003487, trehalose]",42.59
4,"COc1cccc(-c2cc(F)ccc2[C@H]2Cc3nc(N)nc(C)c3C(=O)N2)n1 [ONC0002239, nvphsp990]",94.43
5,"COc1nc(N)nc2c1ncn2[C@@H]1O[C@H](CO)[C@@H](O)[C@@H]1O [ONC0004500, nelarabine arranon]",60.78
6,"CC(C)S(=O)(=O)NC[C@H](C)c1ccc(-c2ccc(CCNS(C)(=O)=O)cc2)cc1 [ONC0000792, mibampator]",65.07
7,"COc1ccccc1N1CCN(CCCNc2cc(=O)n(C)c(=O)n2C)CC1 [ONC0003152, urapidil hydrochloride]",75.54
8,"CC(C)(O)CS(=O)(=O)Nc1ccc2c(c1)CCN(C(=O)COc1cccnc1)C2 [ONC0000777, namptin1]",80.8
9,"CN/C(=N\c1ccc(C2=NNC(=O)CC2C)cc1)NC#N (centres unmarked) [ONC0000865, siguazodan]",68.34
10,"C[C@H](CCC(=O)NCCS(=O)(=O)O)[C@H]1CC[C@H]2[C@@H]3[C@@H](O)C[C@@H]4C[C@H](O)CC[C@]4(C)[C@H]3CC[C@]12C [ONC0003514, tauroursodeoxy cholic acid dihydrate]",70.98
11,"c1cn2cc(-c3ccc4cn[nH]c4c3)nc(Nc3ccc(N4CCOCC4)cc3)c2n1 [ONC0005145, entospletinib gs9973]",86.27
12,"O=C(O)c1ccc(N2N=C(Cc3ccccc3)/C(=C\c3ccc(-c4ccccc4F)o3)C2=O)cc1 [ONC0003538, gs143]",106.5
13,"O=C1[C@@H]2[C@H]3CC[C@H](C3)[C@@H]2C(=O)N1CCCCN1CCN(c2ncccn2)CC1 [ONC0001044, tandospirone]",100.2
14,"O=C1NCCN1CCN1CCC(c2cn(-c3ccc(F)cc3)c3ccc(Cl)cc23)CC1 [ONC0002313, sertindole]",104.8
15,"O=C(Nc1ccc(N2CCC(C(=O)N3CCOCC3)CC2)cc1)c1cnc(Oc2ccccc2)nc1 [ONC0003536, tfc007]",114.7
16,"O=C1CCC(N2C(=O)c3ccccc3C2=O)C(=O)N1 (centres unmarked) [ONC0003095, thalidomide]",66.77
17,"CN[C@@H](CCCNC(=N)N)C(=O)O [ONC0002691, lmonomethylarginine]",94.49
18,"CCCN(CCC)C(=O)C(CCC(=O)OCCCN1CCN(CCOC(=O)Cc2c(C)n(C(=O)c3ccc(Cl)cc3)c3ccc(OC)cc23)CC1)NC(=O)c1ccccc1 (centres unmarked) [ONC0003297, proglumetacin]",71.67
19,"CC1(C)S[C@@H]2[C@H](NC(=O)Cc3ccccc3)C(=O)N2[C@H]1C(=O)O [ONC0000471, penicillin g potassium]",76.26
